# Data reported in publication PMC7181608.
# Amino acid sequences for entries named in this document (tags omitted). A change or cut given only in a name is not applied to a line headed by its entry.
# UniProt P58012: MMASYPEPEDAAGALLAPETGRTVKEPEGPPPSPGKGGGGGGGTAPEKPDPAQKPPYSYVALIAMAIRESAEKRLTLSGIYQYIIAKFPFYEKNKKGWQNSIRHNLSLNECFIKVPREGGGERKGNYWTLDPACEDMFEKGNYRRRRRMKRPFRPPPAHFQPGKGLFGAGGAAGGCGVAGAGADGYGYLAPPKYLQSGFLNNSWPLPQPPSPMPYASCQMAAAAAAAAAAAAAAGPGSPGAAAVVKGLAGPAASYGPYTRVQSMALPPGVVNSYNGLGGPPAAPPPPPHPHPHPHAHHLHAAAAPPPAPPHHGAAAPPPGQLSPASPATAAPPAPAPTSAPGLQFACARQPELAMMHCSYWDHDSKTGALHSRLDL
# These are yes or no findings as the source states them, for the method shown. Binding seen in cells or lysates may run through a third protein. For some of these results: Binding calls can cover weak binding; strength is not graded here.
# Experiments:
# [1] = biological target: Myc-tagged forkhead domain-deleted FOXL2 (ΔFH) (human) (UniProt P58012); test: co-IP; 293T cells transfected with Myc-tagged FOXL2 forms (with Flag-XRCC5 or XRCC6 fragments where indicated); IP with anti-Myc, immunoblot
# [2] = biological target: Myc-tagged polyalanine-deleted FOXL2 (ΔAla) (human) (UniProt P58012); test: as above
binding [1],binding [2],Substance
no binding,binds,"XRCC5 (Ku80), endogenous (from UniProt P13010 1-732)"
no binding,binds,"XRCC6 (Ku70), endogenous (from UniProt P12956 1-609)"
